The values that follow come from article PMC10146957, “Systematic Studies on Anti-Cancer Evaluation of Stilbene and Dibenzo[b,f]oxepine Derivatives” (Molecules, 2023).

Structures are written as SMILES.

One series deals with MCF-7 cells. Description: MTT cytotoxicity assay, MCF-7 cells. It is filed as cell-based, human. As to conditions: for SI3: SI3 = IC50(HEK-293)/IC50(MCF-7); for SI4: SI4 = IC50(HDF-A)/IC50(MCF-7). The method, then:
(§1) Cells were cultured in a humidified incubator at 37 °C under 5% CO2. Human colorectal carcinoma (HCT116) cells were grown in McCoy’s 5A Medium (ATCC, Catalog No. 30-2007), human breast adenocarcinoma (MCF-7) and human dermal fibroblasts (HDF-A) cells were maintained in Dulbecco’s Modified Eagle’s Medium (DMEM, Sigma D5546) supplemented with 2 mM L-glutamine. Human embryonic kidney (HEK293) cell line was cultured in Dulbecco’s Modified Eagle’s Medium (DMEM, Gibco 31966-021). All culture media were supplemented with 1% Penicillin-Streptomycin (Sigma-Aldrich, P4333) and 10% fetal bovine serum (Gibco, 10270-106). Cells were sub-cultured at approximately 80–90% confluency to maintain the culture in the logarithmic growth phase.
(§2) Cells were seeded at a 96-well plate at the density of 7 × 10^3 cells per well and allowed to grow for 24 h. Afterward, the medium was aspirated and fresh medium was added (200 μL) with serial dilutions (100 − 10 μM) of tested compounds or DMSO at corresponding concentrations as a control. Following 48 h of incubation, the medium was replaced with phenol red-free medium (100 μL) containing MTT (3-(4,5-dimethylthiazol-2-yl)-2,5-diphenyl-2H-tetrazolium bromide, 0.5 mg/mL) and replaced in the incubator for 4 h. The formed formazan was dissolved in DMSO (100 μL) followed by incubation of the mixture at 37 °C for 10 min. The absorbance was measured at 540 nm. After blank subtraction, the half maximal effective concentration (EC50) was calculated by GraphPad Prism software (GraphPad Software Inc, San Diego, CA, USA).
A general note: Tetrazolium assays rely on reduction of a dye to a coloured formazan, in cell work by metabolically active cells.

The test system of another series is HCT116 cells. The series can be described thus: MTT cytotoxicity assay, HCT116 cells. The class given is cell-based, human. The note with it: for SI1: SI1 = IC50(HEK-293)/IC50(HCT116); for SI2: SI2 = IC50(HDF-A)/IC50(HCT116). The method, then:
as §1, §2

In the series on MCF-7 cells, `O=[N+]([O-])c1ccc(/C=C/c2ccccc2O)c([N+](=O)[O-])c1` [Compound 1a, (E)-2-hydroxy-2′,4′-dinitrostilbene] registered an SI3 of 0.5 and an SI4 of 1.1.

As for `COc1ccc(/C=C/c2ccc([N+](=O)[O-])cc2[N+](=O)[O-])c(O)c1` [Compound 1c, (E)-2-hydroxy-4-methoxy-2′,4′-dinitrostilbene], in the series on MCF-7 cells, the SI3 is on record as 0.7 and the SI4 was found to be 1.0. Further, in the series with HCT116 cells, the SI1 was determined as 0.9 and the SI2 is on record as 1.1.

In the series with MCF-7 cells, `COc1ccc(O)c(/C=C/c2ccc([N+](=O)[O-])cc2[N+](=O)[O-])c1` [Compound 1d, (E)-2-hydroxy-5-methoxy-2′,4′-dinitrostilbene] gave an SI3 of 0.7 and an SI4 of 0.9. Besides, in the series on HCT116 cells, the SI1 turned out to be 1.8 and the SI2 stood at 2.2.

As for `O=[N+]([O-])c1ccc(/C=C/c2ccc(O)cc2O)c([N+](=O)[O-])c1` [Compound 1i, (E)-2,4-dihydroxy-2′,4′-dinitrostilbene], in the series with MCF-7 cells, the SI3 came out at 0.8 and the SI4 is 0.6. In the series on HCT116 cells, this molecule came in with an SI1 of 1.0 and an SI2 of 0.8.

On to `O=[N+]([O-])c1ccc2c(c1)Oc1cc(O)ccc1C=C2` [Compound 2i, 7-nitrodibenzo[b,f]oxepin-3-ol], for which, in the series with MCF-7 cells, the SI3 is listed as 1.2 and the SI4 came to 1.4. In the series on HCT116 cells, this molecule registered an SI1 of 1.6 and an SI2 of 1.7.

Consider `CC(=O)Oc1ccc2c(c1)Oc1cc([N+](=O)[O-])ccc1C=C2` [Compound 2j, 7-nitrodibenzo[b,f]oxepin-3-yl acetate], for which, in the series with MCF-7 cells, the SI3 was found to be 2.4. For the same molecule, in the series on HCT116 cells, the SI1 worked out at 1.6.

In the case of `Nc1ccc2c(c1)Oc1ccc3ccccc3c1C=C2` [Compound 3h, benzo[b]naphtho[1,2-f]oxepin-9-amine], the SI1 with HCT116 cells is 0.7.
